Data reported in publication PMC10560285.
Results are given in words; binding and its absence hold for the method and conditions named. In cells and extracts the contact can be indirect. Some entries that bind do so weakly or less than the wild type.

The chains behind the UniProt entries cited, without tags or fusion partners.
UniProt B2RSH2: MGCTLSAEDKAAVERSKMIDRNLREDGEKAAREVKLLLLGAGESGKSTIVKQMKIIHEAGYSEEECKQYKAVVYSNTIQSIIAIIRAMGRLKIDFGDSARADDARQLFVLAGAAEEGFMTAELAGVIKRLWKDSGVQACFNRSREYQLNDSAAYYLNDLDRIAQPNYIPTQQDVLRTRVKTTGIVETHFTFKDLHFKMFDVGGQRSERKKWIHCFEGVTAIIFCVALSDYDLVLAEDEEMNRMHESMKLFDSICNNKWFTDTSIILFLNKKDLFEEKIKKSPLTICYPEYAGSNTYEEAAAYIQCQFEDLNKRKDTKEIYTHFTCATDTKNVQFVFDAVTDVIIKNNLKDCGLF
UniProt P08752: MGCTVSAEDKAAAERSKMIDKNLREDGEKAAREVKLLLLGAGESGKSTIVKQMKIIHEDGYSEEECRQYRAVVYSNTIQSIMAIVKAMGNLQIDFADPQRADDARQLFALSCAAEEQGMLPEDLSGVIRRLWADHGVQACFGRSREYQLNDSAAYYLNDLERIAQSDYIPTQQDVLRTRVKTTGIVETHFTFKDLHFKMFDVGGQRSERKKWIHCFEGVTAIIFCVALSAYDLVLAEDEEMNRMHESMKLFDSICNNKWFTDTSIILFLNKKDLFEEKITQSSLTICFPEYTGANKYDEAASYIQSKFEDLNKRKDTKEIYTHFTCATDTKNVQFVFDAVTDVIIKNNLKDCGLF
UniProt Q9DC51: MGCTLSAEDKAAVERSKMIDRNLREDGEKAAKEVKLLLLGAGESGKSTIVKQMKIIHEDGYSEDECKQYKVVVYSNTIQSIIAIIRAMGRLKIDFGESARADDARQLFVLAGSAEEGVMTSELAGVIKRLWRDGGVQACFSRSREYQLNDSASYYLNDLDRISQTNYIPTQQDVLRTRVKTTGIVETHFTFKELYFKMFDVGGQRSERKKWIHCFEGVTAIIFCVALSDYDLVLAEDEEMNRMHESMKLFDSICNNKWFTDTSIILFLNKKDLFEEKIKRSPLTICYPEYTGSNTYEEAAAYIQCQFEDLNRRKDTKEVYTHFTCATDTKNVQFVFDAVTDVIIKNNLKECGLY

T1: leucine-rich repeat G protein-coupled receptor 4 (LGR4) (mouse (endogenous in Neuro-2a)) (UniProt A2ARI4)
T1 sequence: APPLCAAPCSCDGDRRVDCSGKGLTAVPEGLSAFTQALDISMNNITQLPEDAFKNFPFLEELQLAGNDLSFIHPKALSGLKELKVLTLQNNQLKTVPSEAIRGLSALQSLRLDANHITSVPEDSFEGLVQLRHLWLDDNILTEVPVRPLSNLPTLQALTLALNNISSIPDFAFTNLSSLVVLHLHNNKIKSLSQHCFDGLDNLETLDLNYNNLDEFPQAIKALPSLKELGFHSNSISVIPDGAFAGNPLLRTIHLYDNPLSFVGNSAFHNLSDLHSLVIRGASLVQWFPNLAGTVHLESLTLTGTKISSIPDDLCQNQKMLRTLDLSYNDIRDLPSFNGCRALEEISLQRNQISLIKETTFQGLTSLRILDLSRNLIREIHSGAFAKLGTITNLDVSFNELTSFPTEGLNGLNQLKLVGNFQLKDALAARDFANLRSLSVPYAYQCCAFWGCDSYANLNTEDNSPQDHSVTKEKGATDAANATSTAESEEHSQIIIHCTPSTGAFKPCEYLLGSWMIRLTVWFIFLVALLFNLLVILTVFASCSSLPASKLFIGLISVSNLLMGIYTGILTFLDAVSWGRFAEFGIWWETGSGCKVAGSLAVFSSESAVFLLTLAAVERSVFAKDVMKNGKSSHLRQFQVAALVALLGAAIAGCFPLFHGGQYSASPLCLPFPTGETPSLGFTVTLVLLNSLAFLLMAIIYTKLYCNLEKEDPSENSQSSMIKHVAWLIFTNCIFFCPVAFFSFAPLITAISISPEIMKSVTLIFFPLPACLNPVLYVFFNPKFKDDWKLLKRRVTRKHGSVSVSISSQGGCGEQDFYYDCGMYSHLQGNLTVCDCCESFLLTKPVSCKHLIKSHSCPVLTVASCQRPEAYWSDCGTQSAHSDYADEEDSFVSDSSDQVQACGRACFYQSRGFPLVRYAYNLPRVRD


Molecular target: T1, leucine-rich repeat G protein-coupled receptor 4 (LGR4) (mouse (endogenous in Neuro-2a))
Test: co-IP; Neuro-2a cells treated with RSPO3 (50 ng/mL) and cultivated for 5-15 min; LGR4 association with Gab1 and Gαi1/3 examined by co-immunoprecipitation; protocol referred to previous studies

Row | binding | Molecule
1 | binds | Gαi1 (from UniProt B2RSH2 1-354)
2 | no binding | Gαi2 (from UniProt P08752 1-355)
3 | binds | Gαi3 (from UniProt Q9DC51 1-354)
4 | binds | Gab1 (protein, UniProt Q9QYY0 1-695) MSGGEVVCSGWLRKSPPEKKLKRYAWKRRWFVLRSGRLTGDPDVLEYYKNDHAKKPIRIIDLNLCQQVDAGLTFNKKEFENSYIFDINTIDRIFYLVADSEEDMNKWVRCICDICGFNPTEEDPVKPLTGSSQAPVDSPFAISTAPASSQMEASSVALPPPYQVISLPPHPDTLGLQDDPQDYLLLINCQSKKPEPNRTLFDSAKPTFSETDCNDNVPSHQTPASSQSKHGMNGFFQQQMMYDCPPSRLTSVSGESSLYNLPRSYSHDVLPKESPSSTEADGELYTFNTPSGTAGVETQMRHVSISYDIPPTPGNTYQIPRTFPESTLGQSSKLDTIPDIPPPRPPKPHPTHDRSPVETCGVPRTASDTDSSYCIPPPAGMTPSRSNTISTVDLNKLRKDASSQDCYDIPRTFPSDRSSSLEGFHSQYKIKSVLTAGGVSGEELDENYVPMNPNSPPRQHSGSFTEPIQEPNYVPMTPGTFDFSSFGMQVPPPAHMGFRSSPKTPPRRPVPVADCEPPPVDRNLKPDRKVKPAPLDIKPLSEWEELQAPVRSPITRSFARDSSRFPMSPRPDSVHSTTSSSDSHDSEENYVPMNPNLSGEDPNLFASNSLDGGSSPMNKPKGDKQVEYLDLDLDSGKSTPPRKQKSSGSGSSMADERVDYVVVDQQKTLALKSTREAWTDGRQSTESETPTKNVK
